Test results as given in patent publication US20230348568A1 (US Dept. of Health and Human Services, published 2023).
These are yes or no findings as the source states them, for the method shown. Some results given as binding are weak or reduced against the parent protein; the word gives no strength.

Amino acid sequences for entries named in this document (tags omitted). A change or cut given only in a name is not applied to a line headed by its entry.
UniProt P03205: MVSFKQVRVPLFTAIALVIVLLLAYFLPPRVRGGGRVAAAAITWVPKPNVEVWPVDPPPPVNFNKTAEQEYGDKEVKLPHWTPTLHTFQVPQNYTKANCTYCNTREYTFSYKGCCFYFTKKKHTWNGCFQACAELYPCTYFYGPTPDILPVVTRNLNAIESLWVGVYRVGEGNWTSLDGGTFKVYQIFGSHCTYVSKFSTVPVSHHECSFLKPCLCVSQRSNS

What was measured:
[1] = biological target: Epstein-Barr virus glycoprotein 42 (gp42) (Epstein-Barr virus) (UniProt P03205); assay: BLI cross-competition on gH/gL/gp42
[2] = biological target: Epstein-Barr virus glycoprotein 42 (gp42) (Epstein-Barr virus) (UniProt P03205); assay: BLI cross-competition on gp42 (type I and type II)

B1: A10 monoclonal antibody (cynomolgus monkey variable regions on human IgG1 constant region) (antibody, V domains shown)
VH: QVQLQESGPGLVKPSQTLSLTCAISGDSVSSNSATWNWIRQSPSRGLEWLGRTYYRSKWYYDYAQSVQNRISINPDTSKNQFSLQLNSVTPEDMAVYYCARGDFDAFDFWGQGLRVTVSS
VL: SYELTQPPSVSAASGQTARITCGGDNIGSKNVQWYQQKPAQAPVLVIYADSKRPSGVPERFSGSNSGNTATLTISGVEAGDEADYYCQVWDRSSNIFGVGTRLTVLG
binding [1]: binds | binding [2]: binds
